# The supplement of paper PMC12067093, “Discovery and optimisation of a covalent ligand for TRIM25 and its application to targeted protein ubiquitination” (Chemical Science, 2025)
# Sequences of proteins named here, by UniProt entry; tags and fusion partners are left off. A change or cut given only in a name is not applied to a line headed by its entry.
# UniProt P62318, whole entry, looked up: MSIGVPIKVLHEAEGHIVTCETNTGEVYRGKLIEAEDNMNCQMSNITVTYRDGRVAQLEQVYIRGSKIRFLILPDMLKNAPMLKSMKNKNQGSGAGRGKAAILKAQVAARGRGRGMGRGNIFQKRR
# UniProt Q8N0X7: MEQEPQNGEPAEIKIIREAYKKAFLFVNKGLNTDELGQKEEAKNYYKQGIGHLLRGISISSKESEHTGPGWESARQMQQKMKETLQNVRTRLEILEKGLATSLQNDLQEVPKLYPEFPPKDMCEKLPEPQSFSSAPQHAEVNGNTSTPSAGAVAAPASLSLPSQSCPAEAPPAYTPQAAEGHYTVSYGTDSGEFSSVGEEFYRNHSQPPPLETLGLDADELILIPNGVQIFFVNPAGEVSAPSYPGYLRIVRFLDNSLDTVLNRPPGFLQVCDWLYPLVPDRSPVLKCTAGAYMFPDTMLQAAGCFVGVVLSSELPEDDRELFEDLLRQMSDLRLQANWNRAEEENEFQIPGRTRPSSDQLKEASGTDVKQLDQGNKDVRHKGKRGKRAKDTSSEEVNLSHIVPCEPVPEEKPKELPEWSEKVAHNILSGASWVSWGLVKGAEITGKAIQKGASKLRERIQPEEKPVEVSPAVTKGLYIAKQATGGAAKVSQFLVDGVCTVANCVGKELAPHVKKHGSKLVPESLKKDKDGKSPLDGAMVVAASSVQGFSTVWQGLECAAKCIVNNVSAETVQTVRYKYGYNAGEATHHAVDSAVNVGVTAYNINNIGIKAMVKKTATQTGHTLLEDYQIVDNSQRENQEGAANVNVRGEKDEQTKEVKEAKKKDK
# The list shows a part of the results.
# Experiments:
# [1] = target: SNRPD3_P62318_20_VLHEAEGHIVTCETNTGEVYR (UniProt P62318); experiment: probe-labelled cysteine peptide fold change vs DMSO (competition) (log2 fold change); higher = less target engagement (more negative = stronger competition); details: THP-1, incubation time: 4 h
# [2] = target: SPART_Q8N0X7_405_DTSSEEVNLSHIVPCEPVPEEKPK (UniProt Q8N0X7); experiment: as above; details: THP-1, incubation time: 4 h
# 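Note: competitive chemoproteomic profiling in live THP-1 cells with an iodoacetamide desthiobiotin (IA-DTB) probe, comparing probe-labelled peptide intensities in compound-treated cells against DMSO-treated controls.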
structure (smiles),measurement,setting,value
CC1Cc2ccccc2N1C(=O)C1CCCN(C(=O)CCl)C1 (mixture of isomers) [TRIM25 ligand 11 (diastereomer mixture)],probe-labelled cysteine peptide fold change,[1]; 10 µM,0.0412
same,probe-labelled cysteine peptide fold change,[1]; 50 µM,-0.0106
same,probe-labelled cysteine peptide fold change,[2]; 10 µM,-0.0604
same,probe-labelled cysteine peptide fold change,[2]; 50 µM,-0.27
